# Source: patent publication US6602854B1, “Branched multimeric Apo A-I agonist compounds” (priority 1997, dated 2003)
# Tested on: isolated human HDL
# Experiment: Formation of pre-β like particles: displacement of human ApoA-I from isolated human HDL
# Type: binding
# Procedure: Human HDL was isolated by KBr density ultra centrifugation at density d=1.21 g/ml to obtain top fraction followed by Superose 6 gel filtration chromatography to separate HDL from other lipoproteins. Isolated HDL was adjusted to a final concentration of 1.0 mg/ml with physiological saline based on protein content determined by Bradford protein assay. An aliquot of 300 μl was removed from the isolated HDL preparation and incubated with 100 μl ^14C-labeled peptide 4 (0.2-1.0 μg/μl) for two hours at 37° C. Five separate incubations were analyzed including a blank containing 100 μl physiological saline and four dilutions of ^14C-labeled peptide 4: (i) 0.20 μg/μl peptide:HDL ratio=1:15; (ii) 0.30 μg/μl peptide:HDL ratio=1:10; (iii) […] peptide:HDL ratio=1:5; and (iv) 1.00 μg/μl peptide:HDL ratio=1:3. Following the two hour incubation, a 200 μl aliquot of the sample (total volume=400 μl) was loaded onto a Superose 6 gel filtration column for lipoprotein separation and analysis, and 100 μl was used to determine total radioactivity loaded. The conditions for all FPLC chromatographies were as described in Section 9.4, infra.
sequence,measurement,setting,value
PVLDLFRELLNELLEALKQKLK [peptide 4],14C Peak #1,P:LP = 1:3,"43,495 cpm"
same,14C Peak #3,P:LP = 1:3,"7,832 cpm"
same,14C column,P:LP = 1:3,"51,321 cpm"
same,AUC Peak #1,P:LP = 1:3,7.93
same,AUC Peak #2,P:LP = 1:3,1.97
same,EV Peak #1,P:LP = 1:3,30.6 mL
same,EV Peak #2,P:LP = 1:3,34.3 mL
same,14C Peak #1,P:LP = 1:5,"20,768 cpm"
same,14C Peak #3,P:LP = 1:5,"5,281 cpm"
same,14C column,P:LP = 1:5,"26,049 cpm"
same,AUC Peak #1,P:LP = 1:5,8.19
same,AUC Peak #2,P:LP = 1:5,1.53
same,EV Peak #1,P:LP = 1:5,30.8 mL
same,EV Peak #2,P:LP = 1:5,34.3 mL
same,AUC Peak #1,P:LP = 1:10,8.42
same,AUC Peak #2,P:LP = 1:10,0.67
same,EV Peak #1,P:LP = 1:10,30.7 mL
same,EV Peak #2,P:LP = 1:10,33.0 mL
same,14C Peak #1,P:LP = 1:15,"7,920 cpm"
same,14C Peak #3,P:LP = 1:15,"1,622 cpm"
same,14C column,P:LP = 1:15,"9,542 cpm"
same,AUC Peak #1 1a,P:LP = 1:15,4.09
same,AUC Peak #1 1b,P:LP = 1:15,6.26
same,EV Peak #1 1a,P:LP = 1:15,29.4 mL
same,EV Peak #1 1b,P:LP = 1:15,30.9 mL
